## Results of single-concentration screens

By UniProt entry, the sequences of proteins in these tests, tags left out. Residues count along the entry.
UniProt A4I591, 1-473: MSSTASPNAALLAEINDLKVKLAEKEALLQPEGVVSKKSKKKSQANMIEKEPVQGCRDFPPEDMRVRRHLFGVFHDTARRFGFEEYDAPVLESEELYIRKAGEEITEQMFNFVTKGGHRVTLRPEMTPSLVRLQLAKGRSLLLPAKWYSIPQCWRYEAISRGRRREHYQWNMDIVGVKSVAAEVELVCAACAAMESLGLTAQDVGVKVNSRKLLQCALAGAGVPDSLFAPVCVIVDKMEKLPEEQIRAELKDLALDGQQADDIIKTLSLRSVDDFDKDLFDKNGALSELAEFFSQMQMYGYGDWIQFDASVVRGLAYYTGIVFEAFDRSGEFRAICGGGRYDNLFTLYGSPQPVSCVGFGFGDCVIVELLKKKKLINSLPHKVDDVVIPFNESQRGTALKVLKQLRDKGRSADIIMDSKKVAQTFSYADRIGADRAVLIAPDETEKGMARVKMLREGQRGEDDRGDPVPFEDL
UniProt Q4DA54, 1-478: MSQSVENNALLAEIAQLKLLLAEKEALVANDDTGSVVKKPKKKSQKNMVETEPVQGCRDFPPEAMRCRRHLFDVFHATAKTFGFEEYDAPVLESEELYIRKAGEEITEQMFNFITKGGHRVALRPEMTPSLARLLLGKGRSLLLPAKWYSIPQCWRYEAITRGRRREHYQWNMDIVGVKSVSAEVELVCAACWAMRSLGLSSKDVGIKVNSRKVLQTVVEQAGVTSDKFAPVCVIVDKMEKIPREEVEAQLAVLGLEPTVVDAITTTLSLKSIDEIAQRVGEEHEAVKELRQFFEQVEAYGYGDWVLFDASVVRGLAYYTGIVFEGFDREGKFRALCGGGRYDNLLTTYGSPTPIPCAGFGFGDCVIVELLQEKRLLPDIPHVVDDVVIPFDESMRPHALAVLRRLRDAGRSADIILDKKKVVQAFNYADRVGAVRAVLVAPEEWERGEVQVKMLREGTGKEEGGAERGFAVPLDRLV
UniProt Q8IDJ8, 1-583: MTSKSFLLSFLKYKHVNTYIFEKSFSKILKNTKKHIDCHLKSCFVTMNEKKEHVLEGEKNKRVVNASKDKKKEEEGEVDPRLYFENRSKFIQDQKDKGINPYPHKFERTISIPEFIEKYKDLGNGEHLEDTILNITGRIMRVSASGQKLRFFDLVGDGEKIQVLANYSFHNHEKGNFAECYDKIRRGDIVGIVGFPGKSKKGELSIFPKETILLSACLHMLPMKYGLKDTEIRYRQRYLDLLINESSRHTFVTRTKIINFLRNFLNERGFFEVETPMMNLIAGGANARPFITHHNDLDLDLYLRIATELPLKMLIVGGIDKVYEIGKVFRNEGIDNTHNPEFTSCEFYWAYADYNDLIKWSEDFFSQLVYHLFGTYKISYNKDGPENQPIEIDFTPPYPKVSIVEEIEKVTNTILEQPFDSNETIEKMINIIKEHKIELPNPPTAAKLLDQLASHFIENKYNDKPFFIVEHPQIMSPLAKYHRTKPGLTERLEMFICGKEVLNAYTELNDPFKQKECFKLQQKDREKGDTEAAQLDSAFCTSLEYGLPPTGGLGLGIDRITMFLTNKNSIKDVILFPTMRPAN

Results are given as percent effect. How 0% and 100% were set is not recorded. Most values in the screen are low, and negative values occur. This is an unselected part of the compounds tested. Two or more numbers in one place are separate tests of the same structure; such repeats can differ widely. A dash means the value is not listed here; it may have been measured.

A: 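Enzyme assay of histidyl-tRNA synthetase; the read-out is not stated. Target: Histidine-tRNA ligase, Leishmania infantum (UniProt A4I591). Compounds at 30 µM. The record gives no direction; compounds that gave an IC50 in retests scored well above the rest, so higher reads as stronger inhibition. The assay is labelled LdHisRS but filed under L. infantum. Size under these conditions: about 69,000 compounds, about 410 of them at 50% or above in at least one test.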
B: 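Enzyme assay of histidyl-tRNA synthetase; the read-out is not stated. Target: Histidine-tRNA ligase, Trypanosoma cruzi CL Brener (UniProt Q4DA54). Compounds at 30 µM. The record gives no direction; compounds that gave an IC50 in retests scored well above the rest, so higher reads as stronger inhibition. About 69,000 compounds were tested under these conditions; 0.045% (about 31) showed 50% or more at least once.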
C: 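Lysine-tRNA ligase, Plasmodium falciparum 3D7 (UniProt Q8IDJ8). Enzyme assay of the cytosolic lysyl-tRNA synthetase in 384-well plates, read by luminescence. Compounds at 30 µM. Higher reads as stronger inhibition, judged from the few compounds that gave an IC50. About 69,000 compounds were tested under these conditions; 0.071% (about 49) showed 50% or more at least once.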
D: 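Cell assay of Leishmania donovani living inside macrophages; the read-out is not stated. Compounds at 30 µM. Direction is inferred from retests: higher values go with stronger inhibition. About 69,000 compounds were tested under these conditions; 1.5% (about 1,000) showed 50% or more at least once.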

| # | SMILES | A | B | C | D |
|---|---|---|---|---|---|
| 1 | `O=C(O)C(F)(F)F.O=C1COC2(CCN(Cc3ccco3)CC2)CN1CCn1cccn1` | - | - | - | 20.3 |
| 2 | `Cc1cccc(C(C(=O)NCCCc2ccccn2)N(C)C)c1` (stereo not given) | -1.587 | -1.538 | 0.6477 | 13.5 |
| 3 | `O=C(O)C(F)(F)F.[H][C@]12CCC(=O)N(c3ccccc3)[C@@]1([H])CCN2c1ncc(CC)cn1` | - | - | - | 48.13 |
| 4 | `COc1ncccc1C(=O)NCCn1nc(C)ccc1=O` | 22.67 | -0.5291 | 2.612 | 25.48 |
| 5 | `O=C(c1ccc(-n2cccn2)nc1)N1CCC(c2ccn[nH]2)C1` (stereo not given) | 7.092 | 10.15 | 3.097 | -1.814 |
| 6 | `CCOCC1CN(Cc2csc(C)n2)Cc2nccn2C1.O=C(O)C(F)(F)F` (stereo not given) | - | - | - | 22.5 |
| 7 | `O=C(O)C(F)(F)F.O=C(O)C(F)(F)F.[H][C@@]12CN(Cc3ccoc3)CCC[C@]1(C(=O)O)CN(CCOC)C2` | - | - | - | 32.24 |
| 8 | `Cn1ccnc1CN1CCN2C[C@H](OCc3cccnc3)C[C@H]2C1` | 14.29 | 7.843 | 9.237 | - |
| 9 | `CCn1ncc(S(=O)(=O)N[C@@H]2CCC[C@@H](n3ccnc3)[C@@H]2O)c1C` | 12.95 | 11.11 | 3.161 | 16.74 |
| 10 | `Cc1cnn(CC2CN(CCc3cccs3)CCO2)c1` (stereo not given) | 15.52 | 5.65 | 1.549 | -11.31 |
| 11 | `O=C(O)C(F)(F)F.O=C(O)C(F)(F)F.c1ccc(CN2CCCn3nnc(COc4ccccn4)c3C2)nc1` | - | - | - | 15.5 |
| 12 | `CCOC(=O)CNC(=O)NCc1cccn1Cc1ccccc1C` | 7.895 | 6.098 | 2.421 | -6.611 & 37.36 |
| 13 | `CN(C)c1ccccc1CN1CCCCC1CNS(C)(=O)=O` (stereo not given) | 1.653 | 2.041 | 2.957 | 13.62 |
| 14 | `NC(=O)NC(=O)C(c1ccccc1)N1CCN(Cc2ccc(Cl)s2)CC1` (stereo not given) | 14.16 | -0.8772 | 1.256 | 32.51 |
| 15 | `COc1cccc(CC(=O)NCCc2nnc3n2CCCCC3)c1` | 15 | -1.961 | -0.03791 | -3.22 |
| 16 | `COCC(=O)N1C[C@@H](c2cccc(F)c2)[C@H]2[C@H]1CCCCCN2C(C)=O` | -21.74 | -1.515 | 0.8394 | - |
| 17 | `CC(C)Cc1ncc2c(n1)CN(c1cc(NCCO)nc(N)n1)C2` | 23.01 | 8.036 | 12.06 | 22.17 |
| 18 | `Cc1ccc(NC2CCN(C(=O)c3c(C)nn(C)c3Cl)CC2)nn1` | 11.01 | 3.529 | -0.5604 | 25.84 |
| 19 | `Cc1ccoc1C(=O)N1CCc2ccc(=O)n(CCN(C)C)c2CC1.O=C(O)C(F)(F)F` | - | - | - | 1.899 |
| 20 | `COCCNC(=O)c1c(-n2cnnn2)sc2c1CCCC2` | 12.5 | 1.242 | 10.5 | 53.45 |
| 21 | `CC(=O)N1CCCC(c2ccnc(Nc3cnccn3)n2)C1` (stereo not given) | 6.186 | 4.444 | 0.6747 | 12.18 & 3.298 |
| 22 | `Cc1ccc(F)cc1-c1ccc(N)nc1` | 8.772 | 1.093 | -2.831 | 16.71 |
| 23 | `CC(=O)c1cccc(NC(=O)COc2c(C)n(C)ccc2=O)c1` | -5.825 | 1.639 | 1.994 | 31.14 |
| 24 | `CC(C)CN1CCn2c(nc3cc(C(=O)NC(C)C)ccc32)C1` | 15.17 | 7.692 | 7.493 | 6.188 |
| 25 | `CCn1ccnc1CN(C)C(C(=O)O)c1ccc(C(C)(C)C#N)cc1` (stereo not given) | 15.87 | 2.564 | 2.519 | 36.88 |
| 26 | `CC(C)=CCN1CCN(CCCc2ccccc2)[C@H]2CS(=O)(=O)C[C@H]21` | 6.452 | 8.901 | 7.718 | - |
| 27 | `O=S(=O)(NCC1OCCc2cn(Cc3ccccn3)nc21)C1CC1` (stereo not given) | 19.3 | 2.186 | 0.2508 | - |
| 28 | `CC(C)CN1C[C@@H]2OCC(=O)N(c3ccccc3)[C@@H]2C1` | 21.62 | 0.4975 | 8.495 | - |
| 29 | `Cc1ncsc1C(=O)N(C)Cc1ccc(Br)o1` | 0 | 9.551 | -3.105 | -4.434 |
| 30 | `CSc1cccc(CNC(=O)C2CC(=O)N(C3CC3)C2)c1` (stereo not given) | 9.375 | 5.587 | 4.516 | 28.47 |
| 31 | `Cc1ncsc1CN1C[C@@H]2COC[C@]2(C(=O)NCc2ccccn2)C1` | 19 | 2.041 | 2.929 | - |
| 32 | `N#Cc1ccc(OCCn2cccn2)cc1` | 10 | 8.696 | 5.405 | -20.06 |
| 33 | `Cc1nn(C)c(C)c1-c1nccnc1CC1CCNCC1` | 4.027 | -0.2857 | 1.331 | 44.35 |
| 34 | `O=C(CC(F)(F)F)N1C[C@H]2CN(CC3CC3)C(=O)[C@H]2C1` | 9.709 | 6.796 | 4.612 | - |
| 35 | `COc1cc(N2CCc3ncnc(-c4cnn(C)c4)c3CC2)ncn1` | 8 | 4.598 | 5.131 | -5.838 |
| 36 | `NC(=O)CC1CCN(C(=O)c2cnc(-c3ccccc3F)s2)CC1` | 12.5 | 6.383 | 3.322 | 5.648 |
| 37 | `Cc1csc(N2CCCN(C(=O)c3c(C)oc(C)c3C)CC2)n1` | 20.27 | -2.642 | 6.831 | 8.273 |
| 38 | `CN(C)C(=O)c1ccc(NCCNc2ccc3ccccc3n2)nc1` | -38.03 | 0.6369 | -4.801 | -11.58 |
| 39 | `Oc1ccc([C@H]2Oc3cc(O)cc(O)c3C[C@@H]2O)cc1` | 19.44 | 3.96 | 6.69 | 20.66 |
| 40 | `CC(C1CC1)N(C)C(=O)CCn1cccn1` (stereo not given) | 15.38 | -0.5618 | 0.07904 | -10.78 |
| 41 | `Nc1nc(CCCNC(=O)C2CCCN(Cc3ccco3)C2)cs1` (stereo not given) | 13.54 | 1.117 | 2.224 | 7.881 |
| 42 | `Cc1cc(F)cc2c(N3CCC(S(N)(=O)=O)CC3)c(C#N)cnc12` | 8.108 | 5 | 3.455 | -15 |
| 43 | `Cc1cc(C(=O)N2CCC3(CCCN(CC4CC4)C3=O)C2)c(C)n1C` (stereo not given) | 34.29 | 1.653 | 1.795 | 9.341 |
| 44 | `CN(C)c1cncc(C2CCN(CC(N)=O)CC2)n1` | 17.71 | 6.383 | 5.833 | 12.6 |
| 45 | `Cc1cccc(C(C(=O)N(C)CCc2cn[nH]c2)N(C)C)c1` (stereo not given) | 6.452 | 2.299 | 1.298 | 26.4 |
| 46 | `O=C(COc1ccc2c(c1)OCC2O)NCc1ccco1` (stereo not given) | 16.07 | 0 | 7.296 | 21.36 |
| 47 | `COCCc1noc(CN2CCOC(Cn3nc(C)cc3C)C2)n1` (stereo not given) | 12.5 | 3.422 | 1.551 | 7.372 |
| 48 | `Cc1nc2ccccc2n1Cc1cc(C(=O)N(C)C2CCOCC2)no1` | -7.692 | 0 | -4.302 | 0.3799 |
| 49 | `CCC(C)(C)NC(=O)c1ncn2c1CN(C)S(=O)(=O)c1ccccc1-2` | 20.21 | 8.04 | 1.664 | - |
| 50 | `CCc1nnsc1C(=O)N1CCCN(Cc2ccccc2)CC1` | 6.612 | -2.521 | 17.49 | 5.199 |

For reference, 4 entries once more:

SMILES	A	B	C	D
CC(=O)N1CCCC(c2ccnc(Nc3cnccn3)n2)C1 (stereo not given)	6.186	4.444	0.6747	12.18 & 3.298
COCCNC(=O)c1c(-n2cnnn2)sc2c1CCCC2	12.5	1.242	10.5	53.45
Cn1ccnc1CN1CCN2C[C@H](OCc3cccnc3)C[C@H]2C1	14.29	7.843	9.237	-
O=C(c1ccc(-n2cccn2)nc1)N1CCC(c2ccn[nH]2)C1 (stereo not given)	7.092	10.15	3.097	-1.814

Measurements from “University of Dundee, Small-Polar-MMV Screening Library” (2021), ChEMBL document CHEMBL3988442.